Measurements from publication PMC8844851 (The Journal of Biological Chemistry, 2022).
These are yes or no findings as the source states them, for the method shown. A result given as binding can be weak or reduced; the word gives no strength.

Molecular target: Gcd11(DII + III) fused to the LexA DNA-binding domain (S. cerevisiae)
Experiment: two-hybrid; as a8, in a modified reporter strain overexpressing Cdc123

binding: binds
B1: Cdc123 (yeast) (protein, UniProt Q05791 1-360)
chain: MSSQEYTTFIDIPVTRAQVEHCSYSFWSSLYPKYVPKSIVLKSLPKKFIQYLEQDGIKLPQEENSRSVYTEEIIRNEDNDYSDWEDDEDTATEFVQEVEPLIDFPELHQKLKDALNELGAVAPKLNWSAPRDATWILPNNTMKCNEVNELYLLLNASNYIMHDLQRAFKGCVDGDDIKGLKFDLVLRQWCDMNPALEFRVFVKNAHIVGATQRDLNYYDYLDELSDTFKDLIDEIVHDVVLPKFPDKSFVLDVYIPRPFNKIFIVDINPFARKTDSLLFSWNEIAAIAPPKNDVEDYELRLVTRHNTGRFASKEHSENHVPQDLVEASLNPEAIRELTQKWKELLSQQAKEESSDSENET
